Source: PubChem BioAssay AID256 (DTP/NCI, 2004)
The list does not hold the whole screen: it is rich in T/C values a quarter to a half above the control, in often repeated tests (any T/C) and in doses without a T/C. Other doses and runs of a compound stand elsewhere. T/C gives the treated animals as a percentage of the vehicle group. Some entries give survivors of the animals treated and no T/C: the source holds a T/C of zero for them, seemingly a mark for toxic or unscored doses. Some survivor counts are full or nearly so, which does not show that the dose was tolerated: survival well below the control is almost never listed, so the zero probably covers shortened survival too. Survivors were counted at the toxicity check, usually on the fifth day, unless a day is given; later deaths do not show. Schedules are NCI's codes, read here as Q, the interval in days (D) or hours (H), X, the number of doses. Some doses were run more than once; the results are listed from low to high. For survival time, the PubChem record calls one and a half times the control and up active, and a quarter to a half above the control has no call in these data; cut-offs in other NCI protocols can differ. Some schedules carry Z or #; the key to these is not given. Some T/C values carry the count of animals alive at the toxicity check (mostly the fifth day); where none is given, no animal had died by that day.

System: CD2F1 mice, L1210 leukemia ip, survival T/C
Test: NCI In Vivo Anticancer Drug Screen. Data for tumor model L1210 Leukemia (intraperitoneal) in CD2F1 (CDF1) mice
Settings: higher T/C = longer survival
Summary of the method: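 Mice carrying a transplanted tumor received test compound or vehicle alone. The value is the measurement in the treated group divided by that in the vehicle-treated control group.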

[1] = T/C endpoint: mean survival time, dose: 400.0 mg/kg/injection, schedule: Q04DX003 (ip), vehicle: saline with Tween-80
[2] = T/C endpoint: mean survival time, dose: 200.0 mg/kg/injection, schedule: Q01DX009 (ip), vehicle: saline with Tween-80
[3] = T/C endpoint: mean survival time, dose: 400.0 mg/kg/injection, schedule: Q01DX009 (ip), vehicle: saline with Tween-80
[4] = T/C endpoint: median survival time, dose: 4.0 mg/kg/injection, schedule: Q01DX009 (ip), vehicle: saline
[5] = T/C endpoint: mean survival time, dose: 400.0 mg/kg/injection, schedule: Q01DX009 (ip), vehicle: saline

COc1cc2c(c3c1c(=O)c1cccc(F)c1n3C)C=CC(C)(C)O2
T/C (T/C endpoint: median survival time, dose: 25.0 mg/kg/injection, schedule: Q01DX009 (ip), vehicle: Klucel (hydroxypropylcellulose) (HPC)): 129 and 132 % of control | T/C (T/C endpoint: median survival time, dose: 50.0 mg/kg/injection, schedule: Q01DX009 (ip), vehicle: Klucel (hydroxypropylcellulose) (HPC)): 141 % of control | T/C (T/C endpoint: median survival time, dose: 100.0 mg/kg/injection, schedule: Q01DX009 (ip), vehicle: Klucel (hydroxypropylcellulose) (HPC)): 139 % of control [5 of 6 alive] | survivor count (T/C endpoint: median survival time, dose: 400.0 mg/kg/injection, schedule: Q01DX009 (ip), vehicle: Klucel (hydroxypropylcellulose) (HPC)): 1 of 6 and 3 of 6

Oc1c(C(c2ccccc2)N2CCOCC2)ccc2ccccc12 (stereo not drawn)
survivor count [1]: 3 of 6

Nc1c(Br)cc2c(c1Br)Cc1cc(Cl)ccc1-2
survivor count [2]: 0 of 6 | survivor count [3]: 1 of 6

COc1oc(C2C/C(=C/C(C)=C/C(C)=C/C(C)=C/c3ccc([N+](=O)[O-])cc3)CO2)c(C)c(=O)c1C (stereo not drawn)
T/C (T/C endpoint: median survival time, dose: 1.0 mg/kg/injection, schedule: Q01DX009 (ip), vehicle: saline): 135 % of control | T/C (T/C endpoint: median survival time, dose: 2.0 mg/kg/injection, schedule: Q01DX009 (ip), vehicle: saline): 137 and 141 % of control | T/C [4]: 132 % of control | survivor count [4]: 3 of 6 | survivor count (T/C endpoint: median survival time, dose: 8.0 mg/kg/injection, schedule: Q01DX009 (ip), vehicle: saline): 0 of 6

N=S(=O)(c1ccccc1)c1ccccc1
survivor count (T/C endpoint: mean survival time, dose: 400.0 mg/kg/injection, schedule: Q04DX002 (ip), vehicle: saline with Tween-80): 1 of 3

CCOC(C[N+](C)(C)C)OCC
survivor count [2]: 5 of 6

C=C(C)CSc1ccccc1
survivor count (T/C endpoint: mean survival time, dose: 400.0 mg/kg/injection, schedule: Q01DX001 (ip), vehicle: saline): 1 of 6

O=C1C=CC(=O)N1CO
survivor count (T/C endpoint: mean survival time, dose: 14.5 mg/kg/injection, schedule: Q04DX003 (ip), vehicle: saline): 0 of 6 | survivor count (T/C endpoint: mean survival time, dose: 22.0 mg/kg/injection, schedule: Q04DX003 (ip), vehicle: saline): 0 of 6 | survivor count (T/C endpoint: mean survival time, dose: 33.0 mg/kg/injection, schedule: Q04DX003 (ip), vehicle: saline): 0 of 6

O=C(CBr)c1ccccc1
survivor count (T/C endpoint: mean survival time, dose: 20.0 mg/kg/injection, schedule: Q01DX009 (ip), vehicle: saline with Tween-80): 2 of 6

O=C(Nc1ccc(Cl)c(C(F)(F)F)c1)Nc1cc(C(F)(F)F)ccc1Sc1cc(Cl)c(Cl)cc1S(=O)(=O)O
survivor count [2]: 1 of 6 | survivor count [3]: 0 of 6

COC(=O)c1cccn1C(=O)c1cc(OC)c(OC)cc1[N+](=O)[O-]
survivor count (T/C endpoint: mean survival time, dose: 200.0 mg/kg/injection, schedule: Q04DX002 (ip), vehicle: saline with Tween-80): 1 of 3

CCCCCCC[CH2][Sn]1([CH2]CCCCCCC)[O]C2C(CO)OC(n3cnc4c(=O)[nH]c(N)nc43)C2[O]1 (stereo not drawn)
survivor count (T/C endpoint: mean survival time, dose: 25.0 mg/kg/injection, schedule: Q01DX005 (ip), vehicle: other): 0 of 6 | survivor count (T/C endpoint: mean survival time, dose: 50.0 mg/kg/injection, schedule: Q01DX005 (ip), vehicle: other): 0 of 6 | survivor count (T/C endpoint: mean survival time, dose: 100.0 mg/kg/injection, schedule: Q01DX005 (ip), vehicle: other): 0 of 6 | survivor count (T/C endpoint: mean survival time, dose: 200.0 mg/kg/injection, schedule: Q01DX005 (ip), vehicle: other): 0 of 6

O=[N+]([O-])c1ccc2c(ccn2C2OCC(O)C(O)C2O)c1 (stereo not drawn)
survivor count (T/C endpoint: mean survival time, dose: 550.0 mg/kg/injection, schedule: Q01DX009 (ip), vehicle: saline with Tween-80): 1 of 3

[O-][n+]1cc(-c2ccccc2)cc2ccccc21
survivor count (T/C endpoint: mean survival time, dose: 200.0 mg/kg/injection, schedule: Q04DX003 (ip), vehicle: saline with Tween-80): 0 of 6

NC(=S)c1cn(C2OC(CO)C(O)C2O)c2ncnc(N)c12 (stereo not drawn)
T/C (T/C endpoint: median survival time, dose: 0.62 mg/kg/injection, schedule: Q01DX009 (ip), vehicle: suspension in saline): 125 % of control [5 of 6 alive] | T/C (T/C endpoint: median survival time, dose: 1.25 mg/kg/injection, schedule: Q01DX009 (ip), vehicle: suspension in saline): 141 % of control

Nc1ncnc2c1ccn2C1OC(CO)C(O)C1O (stereo not drawn)
T/C (T/C endpoint: mean survival time, dose: 2.0 mg/kg/injection, schedule: Q01DX001 (ip), vehicle: carboxymethylcellulose (CMC)): 127 % of control | survivor count (T/C endpoint: mean survival time, dose: 2.0 mg/kg/injection, schedule: Q01DX009 (ip), vehicle: saline): 3 of 6 and 6 of 6 | survivor count (T/C endpoint: mean survival time, dose: 4.0 mg/kg/injection, schedule: Q01DX009 (ip), vehicle: saline): 6 of 6 | T/C (T/C endpoint: mean survival time, dose: 4.0 mg/kg/injection, schedule: Q#A X002 (ip), vehicle: carboxymethylcellulose (CMC)): 127 % of control | survivor count (T/C endpoint: mean survival time, dose: 5.0 mg/kg/injection, schedule: Q01DX009 (ip), vehicle: saline): 4 of 6 | survivor count (T/C endpoint: median survival time, dose: 1.0 mg/kg/injection, schedule: Q03HX024 (ip), vehicle: other): 9 of 10 | survivor count (T/C endpoint: median survival time, dose: 2.0 mg/kg/injection, schedule: Q01DX009 (ip), vehicle: other): 10 of 10 | survivor count (T/C endpoint: median survival time, dose: 2.0 mg/kg/injection, schedule: Q03HX008 (ip), vehicle: other): 2 of 10 | survivor count (T/C endpoint: median survival time, dose: 2.0 mg/kg/injection, schedule: Q03HX016 (ip), vehicle: other): 1 of 10 | survivor count (T/C endpoint: median survival time, dose: 4.0 mg/kg/injection, schedule: Q01DX009 (ip), vehicle: other): 10 of 10 | survivor count (T/C endpoint: median survival time, dose: 16.0 mg/kg/injection, schedule: Q01DX001 (ip), vehicle: other): 2 of 10 | survivor count (T/C endpoint: median survival time, dose: 16.0 mg/kg/injection, schedule: Q01DX001 (sc), vehicle: other): 10 of 10 | survivor count (T/C endpoint: median survival time, dose: 16.0 mg/kg/injection, schedule: Q08DX002 (ip), vehicle: other): 3 of 10

O=C1CC(=O)NC(=S)N1
survivor count [5]: 0 of 6

Cn1c(-c2ccc(/C=N\N3CCN(/N=C/c4ccc(-c5c[n+]6ccsc6n5C)cc4)CC3)cc2)c[n+]2ccsc12
survivor count (T/C endpoint: median survival time, dose: 6.0 mg/kg/injection, schedule: Q01DX005 (ip), vehicle: saline with Tween-80): 1 of 6 | survivor count (T/C endpoint: median survival time, dose: 12.0 mg/kg/injection, schedule: Q01DX005 (ip), vehicle: saline with Tween-80): 0 of 6

O=P(CCC(O)c1ccccc1)(c1ccccc1)c1ccccc1 (stereo not drawn)
survivor count [2]: 3 of 6 | survivor count [1]: 3 of 6

c1cc2n(n1)CCN2
survivor count (T/C endpoint: mean survival time, dose: 50.0 mg/kg/injection, schedule: Q01DX009 (ip), vehicle: saline): 6 of 6 | survivor count (T/C endpoint: mean survival time, dose: 128.0 mg/kg/injection, schedule: Q03HX008 (ip), vehicle: saline): 1 of 10 | survivor count (T/C endpoint: mean survival time, dose: 128.0 mg/kg/injection, schedule: Q03HX016 (ip), vehicle: saline): 2 of 10 | survivor count (T/C endpoint: mean survival time, dose: 128.0 mg/kg/injection, schedule: Q03HX024 (ip), vehicle: saline): 0 of 10 | T/C (T/C endpoint: mean survival time, dose: 256.0 mg/kg/injection, schedule: Q04DX003 (ip), vehicle: saline): 126 % of control | survivor count [5]: 2 of 6 | T/C (T/C endpoint: mean survival time, dose: 400.0 mg/kg/injection, schedule: Q04DX003 (ip), vehicle: water): 147 % of control [5 of 6 alive] | T/C (T/C endpoint: mean survival time, dose: 400.0 mg/kg/injection, schedule: Q04DX003 (iv), vehicle: saline): 131 % of control | T/C (T/C endpoint: mean survival time, dose: 512.0 mg/kg/injection, schedule: Q01DX001 (ip), vehicle: saline): 133 % of control | survivor count (T/C endpoint: mean survival time, dose: 512.0 mg/kg/injection, schedule: Q01DX005 (ip), vehicle: saline): 1 of 10 | survivor count (T/C endpoint: mean survival time, dose: 512.0 mg/kg/injection, schedule: Q01DX009 (ip), vehicle: saline): 1 of 10 | T/C (T/C endpoint: mean survival time, dose: 600.0 mg/kg/injection, schedule: Q04DX003 (ip), vehicle: water): 131 % of control [5 of 6 alive] | T/C (T/C endpoint: mean survival time, dose: 1024.0 mg/kg/injection, schedule: Q01DX001 (ip), vehicle: saline): 146 % of control [7 of 10 alive] | survivor count (T/C endpoint: mean survival time, dose: 1024.0 mg/kg/injection, schedule: Q04DX003 (ip), vehicle: saline): 7 of 10 | survivor count (T/C endpoint: mean survival time, dose: 1024.0 mg/kg/injection, schedule: Q08DX002 (ip), vehicle: saline): 6 of 10

Clc1ccc(CN2COc3c(ccc4cccnc34)C2)cc1Cl
survivor count [3]: 0 of 6

CC(=O)C(C(C)=O)C1C=CC=CC=C1
survivor count (T/C endpoint: mean survival time, dose: 100.0 mg/kg/injection, schedule: Q01DX009 (ip), vehicle: saline with Tween-80): 6 of 6

CN1CC(C(=O)NC(C)(C)C)CC(c2ccccc2)C1 (stereo not drawn)
survivor count (T/C endpoint: mean survival time, dose: 100.0 mg/kg/injection, schedule: Q01DX001 (ip), vehicle: saline with Tween-80): 1 of 6 | survivor count (T/C endpoint: mean survival time, dose: 200.0 mg/kg/injection, schedule: Q01DX001 (ip), vehicle: saline with Tween-80): 0 of 6 | survivor count (T/C endpoint: mean survival time, dose: 400.0 mg/kg/injection, schedule: Q01DX001 (ip), vehicle: saline with Tween-80): 0 of 6
